Source: paper PMC8429736, “Pharmacological characterization of mutant huntingtin aggregate-directed PET imaging tracer candidates” (Scientific Reports, 2021)
Not every entry of the source has a single result; some have several. This is not the full list of results. There may be further records. The values listed for one entry differ for a reason that is not stated; some may be repeats, others may stem from another dose, organism or construct than stated.

Tested on: beta amyloid/tau aggregates in post-mortem AD patient brain homogenates
Experiment: ADbh RBA competition format
Conditions: radioligand 4, compound 1 µM, tested as the radiolabelled form

COc1ccc(NC(=O)c2ccn3c(n2)nc2ccccc23)cn1
inhibition at 1 µM: < 5% and 5%
